Experimental data published in the supplement of paper PMC10849652.
The list shows a part of the results.

The chains behind the UniProt entries cited, without tags or fusion partners. Where a name states a change or a piece, a line headed by the entry shows the natural chain unless it says otherwise.
UniProt P13489: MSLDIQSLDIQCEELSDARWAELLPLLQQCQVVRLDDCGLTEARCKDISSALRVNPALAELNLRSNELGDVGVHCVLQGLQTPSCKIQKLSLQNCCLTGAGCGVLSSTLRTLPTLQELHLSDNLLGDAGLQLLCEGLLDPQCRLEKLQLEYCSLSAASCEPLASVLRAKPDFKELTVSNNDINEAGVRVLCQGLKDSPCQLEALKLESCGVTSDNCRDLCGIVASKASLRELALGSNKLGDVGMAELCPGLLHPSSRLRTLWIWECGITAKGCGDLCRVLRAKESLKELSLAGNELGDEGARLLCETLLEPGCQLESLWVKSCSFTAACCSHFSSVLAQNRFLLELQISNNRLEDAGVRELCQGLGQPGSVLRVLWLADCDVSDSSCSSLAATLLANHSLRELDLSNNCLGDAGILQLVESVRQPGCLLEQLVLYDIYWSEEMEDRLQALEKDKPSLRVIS
UniProt O75792: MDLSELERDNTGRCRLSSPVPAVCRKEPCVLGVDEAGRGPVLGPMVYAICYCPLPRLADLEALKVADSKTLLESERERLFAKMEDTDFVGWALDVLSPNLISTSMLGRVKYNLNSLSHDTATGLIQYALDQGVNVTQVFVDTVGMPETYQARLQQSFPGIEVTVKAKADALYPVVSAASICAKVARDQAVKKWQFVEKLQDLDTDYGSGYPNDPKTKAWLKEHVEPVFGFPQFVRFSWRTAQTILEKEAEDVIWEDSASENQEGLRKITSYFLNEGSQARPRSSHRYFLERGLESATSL
UniProt Q9H9A7: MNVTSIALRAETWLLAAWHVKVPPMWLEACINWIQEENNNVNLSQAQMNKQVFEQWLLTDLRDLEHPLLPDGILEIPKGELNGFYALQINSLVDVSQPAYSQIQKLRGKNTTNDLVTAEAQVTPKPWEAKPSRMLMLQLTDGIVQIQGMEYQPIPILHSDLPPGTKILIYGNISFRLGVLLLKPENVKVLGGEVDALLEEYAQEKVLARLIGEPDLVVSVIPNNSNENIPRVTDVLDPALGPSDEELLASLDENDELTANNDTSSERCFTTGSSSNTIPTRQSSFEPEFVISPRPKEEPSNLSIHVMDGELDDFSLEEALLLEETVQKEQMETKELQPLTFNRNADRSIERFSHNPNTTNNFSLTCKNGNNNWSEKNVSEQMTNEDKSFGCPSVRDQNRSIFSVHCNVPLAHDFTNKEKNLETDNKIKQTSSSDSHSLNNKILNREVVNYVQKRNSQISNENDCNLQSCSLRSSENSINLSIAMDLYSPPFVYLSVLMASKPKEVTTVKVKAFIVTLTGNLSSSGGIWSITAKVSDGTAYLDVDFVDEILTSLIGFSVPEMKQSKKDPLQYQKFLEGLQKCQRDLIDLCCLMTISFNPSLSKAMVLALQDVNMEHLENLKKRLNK
UniProt Q9Y508: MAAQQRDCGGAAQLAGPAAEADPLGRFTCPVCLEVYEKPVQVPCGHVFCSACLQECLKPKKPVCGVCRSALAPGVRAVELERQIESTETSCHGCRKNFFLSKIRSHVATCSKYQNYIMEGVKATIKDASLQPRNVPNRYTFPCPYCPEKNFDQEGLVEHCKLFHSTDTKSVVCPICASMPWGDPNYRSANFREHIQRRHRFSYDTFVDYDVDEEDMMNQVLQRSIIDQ
UniProt Q8IXW5, whole entry, looked up: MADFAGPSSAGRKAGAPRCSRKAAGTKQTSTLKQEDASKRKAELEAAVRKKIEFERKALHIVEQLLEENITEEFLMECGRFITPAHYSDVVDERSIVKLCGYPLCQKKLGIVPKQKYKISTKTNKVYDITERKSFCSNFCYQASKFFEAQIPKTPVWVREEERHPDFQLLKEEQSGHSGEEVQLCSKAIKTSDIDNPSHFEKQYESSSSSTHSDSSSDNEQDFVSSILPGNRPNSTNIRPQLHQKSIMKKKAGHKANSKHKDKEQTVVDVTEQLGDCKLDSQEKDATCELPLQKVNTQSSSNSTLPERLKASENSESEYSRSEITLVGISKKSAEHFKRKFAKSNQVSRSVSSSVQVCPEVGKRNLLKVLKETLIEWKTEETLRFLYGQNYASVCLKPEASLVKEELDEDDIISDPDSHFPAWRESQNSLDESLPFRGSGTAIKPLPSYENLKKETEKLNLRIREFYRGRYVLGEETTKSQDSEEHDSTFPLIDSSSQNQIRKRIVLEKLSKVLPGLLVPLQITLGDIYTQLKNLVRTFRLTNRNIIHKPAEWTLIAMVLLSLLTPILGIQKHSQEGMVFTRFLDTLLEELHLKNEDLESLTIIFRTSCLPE
UniProt Q9H871: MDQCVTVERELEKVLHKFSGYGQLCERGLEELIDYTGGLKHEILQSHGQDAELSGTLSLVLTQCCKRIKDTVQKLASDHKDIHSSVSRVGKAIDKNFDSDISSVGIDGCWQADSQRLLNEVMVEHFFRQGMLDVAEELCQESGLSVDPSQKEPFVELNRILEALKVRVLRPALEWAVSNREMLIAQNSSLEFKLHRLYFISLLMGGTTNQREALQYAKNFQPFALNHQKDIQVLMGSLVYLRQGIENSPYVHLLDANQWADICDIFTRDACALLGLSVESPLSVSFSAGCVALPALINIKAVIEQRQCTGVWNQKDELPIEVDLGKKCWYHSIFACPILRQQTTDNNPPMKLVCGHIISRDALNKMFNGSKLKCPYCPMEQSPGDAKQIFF
UniProt O43148, whole entry, looked up: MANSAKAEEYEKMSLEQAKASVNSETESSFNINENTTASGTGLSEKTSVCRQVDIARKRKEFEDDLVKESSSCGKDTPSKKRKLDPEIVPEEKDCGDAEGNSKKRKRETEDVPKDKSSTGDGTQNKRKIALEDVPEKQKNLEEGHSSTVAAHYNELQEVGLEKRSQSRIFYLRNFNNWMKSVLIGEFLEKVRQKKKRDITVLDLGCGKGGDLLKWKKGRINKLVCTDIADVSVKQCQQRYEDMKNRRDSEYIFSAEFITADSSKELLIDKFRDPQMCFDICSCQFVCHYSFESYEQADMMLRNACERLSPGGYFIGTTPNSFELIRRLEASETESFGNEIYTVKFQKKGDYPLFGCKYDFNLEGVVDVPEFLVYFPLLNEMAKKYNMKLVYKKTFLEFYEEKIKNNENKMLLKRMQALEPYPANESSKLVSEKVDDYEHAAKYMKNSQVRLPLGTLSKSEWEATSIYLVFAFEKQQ
UniProt Q8WVD3: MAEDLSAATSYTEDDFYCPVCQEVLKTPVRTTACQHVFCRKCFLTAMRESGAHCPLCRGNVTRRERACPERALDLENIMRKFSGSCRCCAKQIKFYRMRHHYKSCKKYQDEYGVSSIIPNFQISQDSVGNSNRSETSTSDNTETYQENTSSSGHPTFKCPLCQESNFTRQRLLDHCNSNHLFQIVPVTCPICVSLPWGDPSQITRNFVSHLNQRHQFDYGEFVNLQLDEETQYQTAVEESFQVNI
UniProt P35244: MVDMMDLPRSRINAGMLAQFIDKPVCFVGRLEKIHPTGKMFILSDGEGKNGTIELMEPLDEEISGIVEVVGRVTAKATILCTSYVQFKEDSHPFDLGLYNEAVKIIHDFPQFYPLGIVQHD
UniProt Q9H6T3, whole entry, looked up: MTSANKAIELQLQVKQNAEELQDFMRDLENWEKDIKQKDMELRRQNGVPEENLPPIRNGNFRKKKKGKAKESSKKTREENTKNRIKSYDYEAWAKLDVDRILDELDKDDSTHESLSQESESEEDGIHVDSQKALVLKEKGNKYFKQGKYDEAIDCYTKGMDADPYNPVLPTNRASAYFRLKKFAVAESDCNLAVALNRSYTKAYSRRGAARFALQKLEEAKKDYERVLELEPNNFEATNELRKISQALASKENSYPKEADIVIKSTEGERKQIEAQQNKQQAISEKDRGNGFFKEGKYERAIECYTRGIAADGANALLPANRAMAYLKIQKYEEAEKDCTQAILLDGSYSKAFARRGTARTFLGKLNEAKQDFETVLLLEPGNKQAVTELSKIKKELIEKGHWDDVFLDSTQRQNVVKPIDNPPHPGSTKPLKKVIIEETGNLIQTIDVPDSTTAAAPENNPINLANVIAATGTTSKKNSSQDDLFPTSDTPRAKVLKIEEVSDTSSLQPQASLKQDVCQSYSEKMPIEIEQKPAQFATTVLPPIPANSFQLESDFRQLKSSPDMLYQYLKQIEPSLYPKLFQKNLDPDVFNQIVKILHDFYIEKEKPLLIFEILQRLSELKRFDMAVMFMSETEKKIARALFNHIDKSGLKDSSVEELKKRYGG
UniProt Q9UBS8: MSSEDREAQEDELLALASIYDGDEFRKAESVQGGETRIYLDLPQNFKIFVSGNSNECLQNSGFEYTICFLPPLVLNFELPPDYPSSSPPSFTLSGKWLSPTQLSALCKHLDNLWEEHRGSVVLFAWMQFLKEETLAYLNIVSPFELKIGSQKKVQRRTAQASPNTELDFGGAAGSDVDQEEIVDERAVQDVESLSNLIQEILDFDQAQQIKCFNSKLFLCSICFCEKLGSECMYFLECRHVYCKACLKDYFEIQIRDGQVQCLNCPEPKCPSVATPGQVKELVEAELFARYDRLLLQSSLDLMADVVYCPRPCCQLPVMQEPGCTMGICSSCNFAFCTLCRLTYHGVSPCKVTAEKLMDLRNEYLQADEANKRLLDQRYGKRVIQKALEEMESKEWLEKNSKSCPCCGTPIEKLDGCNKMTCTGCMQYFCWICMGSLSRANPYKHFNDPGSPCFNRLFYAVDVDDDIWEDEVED
UniProt Q4ADV7: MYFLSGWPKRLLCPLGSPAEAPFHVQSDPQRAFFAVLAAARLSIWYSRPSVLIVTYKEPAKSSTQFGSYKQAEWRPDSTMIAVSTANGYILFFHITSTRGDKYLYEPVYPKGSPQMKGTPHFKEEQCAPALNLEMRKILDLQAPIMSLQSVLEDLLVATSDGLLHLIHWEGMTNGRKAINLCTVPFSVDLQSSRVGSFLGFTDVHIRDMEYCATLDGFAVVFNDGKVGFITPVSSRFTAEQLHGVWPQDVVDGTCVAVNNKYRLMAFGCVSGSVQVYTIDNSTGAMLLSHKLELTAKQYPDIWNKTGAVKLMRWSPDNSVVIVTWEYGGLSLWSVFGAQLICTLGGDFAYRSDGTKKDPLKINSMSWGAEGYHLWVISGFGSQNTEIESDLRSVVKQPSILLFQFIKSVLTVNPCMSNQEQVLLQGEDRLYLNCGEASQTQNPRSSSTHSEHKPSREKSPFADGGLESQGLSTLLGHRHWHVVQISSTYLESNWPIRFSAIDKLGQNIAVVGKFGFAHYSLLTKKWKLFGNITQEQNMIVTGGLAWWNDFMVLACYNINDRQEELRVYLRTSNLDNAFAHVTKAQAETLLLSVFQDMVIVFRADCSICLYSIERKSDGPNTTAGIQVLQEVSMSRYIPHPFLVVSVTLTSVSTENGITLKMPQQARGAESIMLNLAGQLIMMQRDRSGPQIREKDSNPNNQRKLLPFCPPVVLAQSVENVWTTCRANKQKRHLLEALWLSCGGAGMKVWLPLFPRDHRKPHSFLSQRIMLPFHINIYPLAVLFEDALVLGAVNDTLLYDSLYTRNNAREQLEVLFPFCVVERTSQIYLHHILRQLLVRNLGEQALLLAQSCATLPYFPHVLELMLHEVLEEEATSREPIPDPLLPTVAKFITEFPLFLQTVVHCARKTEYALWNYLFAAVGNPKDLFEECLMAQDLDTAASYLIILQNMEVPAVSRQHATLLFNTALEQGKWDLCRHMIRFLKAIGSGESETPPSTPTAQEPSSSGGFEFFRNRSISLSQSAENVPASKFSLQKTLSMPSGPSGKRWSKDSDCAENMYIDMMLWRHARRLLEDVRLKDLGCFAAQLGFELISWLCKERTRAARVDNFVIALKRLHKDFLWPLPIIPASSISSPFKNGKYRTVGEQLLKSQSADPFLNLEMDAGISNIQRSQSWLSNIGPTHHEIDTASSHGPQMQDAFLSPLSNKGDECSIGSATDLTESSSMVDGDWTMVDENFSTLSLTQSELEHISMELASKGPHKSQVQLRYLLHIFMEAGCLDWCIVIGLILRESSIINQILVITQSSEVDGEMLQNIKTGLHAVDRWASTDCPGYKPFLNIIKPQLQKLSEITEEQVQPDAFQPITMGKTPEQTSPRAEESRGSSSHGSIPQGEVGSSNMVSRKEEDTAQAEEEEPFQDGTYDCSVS
UniProt O00584, whole entry, looked up: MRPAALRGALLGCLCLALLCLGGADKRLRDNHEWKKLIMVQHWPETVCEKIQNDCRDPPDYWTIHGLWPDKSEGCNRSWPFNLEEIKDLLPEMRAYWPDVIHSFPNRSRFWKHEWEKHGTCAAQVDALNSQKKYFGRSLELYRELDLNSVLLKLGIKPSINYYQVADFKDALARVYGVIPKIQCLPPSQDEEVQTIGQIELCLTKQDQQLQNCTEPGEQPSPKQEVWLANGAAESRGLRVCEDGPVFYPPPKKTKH
UniProt Q8WVD5: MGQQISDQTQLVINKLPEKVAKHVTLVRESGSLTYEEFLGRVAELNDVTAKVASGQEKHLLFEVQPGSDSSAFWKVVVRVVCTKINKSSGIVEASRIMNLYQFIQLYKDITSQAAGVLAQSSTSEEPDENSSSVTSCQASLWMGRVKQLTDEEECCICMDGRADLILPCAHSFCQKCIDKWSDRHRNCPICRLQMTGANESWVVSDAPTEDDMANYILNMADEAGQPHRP

Legend:
Test in all cases: log2 fold change, soluble protein after heating vs DMSO (PISA); higher = thermal stabilisation; K562 lysate, 10 uM; active = over 0.2 and 3.5 SD of the protein, either way, in both replicates (recomputed)
[1] = compound: C1=CC=C(C=C1)[C@H](COC2=CC3=C(C=C2)NC(=O)N3)NC(=O)C4=CC=CN(C4=O)CC5=CC(=C(C=C5)F)F
Summary of the method: (§1)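 Dounce homogenisation of K562 pellets in PBS pH 7.4 with 1 mM MgCl2 produced a crude extract, used at 1 mg/mL protein. Exposure to 10 μM compound lasted 30 min, and aliquots were then heated for 3 min across 48°C-58°C, pooled and brought to 0.5% NP-40 at 4°C. The supernatant after 21,000xg for 90 min was quantified by TMTpro 16plex LC-MS/MS with channel sums equalised. Duplicate values are given as log-two fold change in thermal stability relative to solvent controls.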

[2] = compound: CC1=C(SC2=C1C(=N[C@H](C3=NN=C(N32)C)CC(=O)N)C4=CC=C(C=C4)Cl)C
Summary of the method: as §1

[3] = compound: CC1=C2C(=CC=C1)N=C(N(C2=O)C3=CC=CC=C3C)CN4C=NC5=C(N=CN=C54)N
Summary of the method: as §1

[4] = compound: Cc1sc2c(c1C)C(c1ccc(Cl)cc1)=N[C@@H](CC(=O)OC(C)(C)C)c1nnc(C)n1-2
Summary of the method: as §1

[5] = compound: c1ccc([C@@H]2C[C@H]2NC2CCNCC2)cc1
Summary of the method: as §1

Measured: log2 fold change

RNH1 (UniProt P13489)
inactive: [1] -0.05 | [2] -0.071 | [3] -0.006 | [4] 0.025 | [5] -0.18

RPL30 (UniProt P62888)
inactive: [1] 0.008 | [2] -0.007 | [3] -0.014 | [4] -0.007 | [5] -0.024

RHOC (UniProt P08134)
inactive: [1] -0.003 | [2] 0.043 | [3] -0.012 | [4] 0.08 | [5] -0.064

RNASEH2A (UniProt O75792)
inactive: [1] 0.005 | [2] -0.01 | [3] 0.021 | [4] 0.104 | [5] 0.006

RPL29 (UniProt P47914)
inactive: [1] 0.006 | [2] -0.021 | [3] -0.013 | [4] 0.146 | [5] 0.074

ROCK1 (UniProt Q13464)
inactive: [1] 0.019 | [2] 0.027 | [3] 0.023 | [4] -0.016 | [5] -0.008

RMI1 (UniProt Q9H9A7)
inactive: [1] 0.141 | [2] -0.155 | [3] -0.131 | [4] -0.083 | [5] 0.011

RPL31 (UniProt P62899)
inactive: [1] 0.016 | [2] 0.013 | [3] -0.027 | [4] 0.041 | [5] -0.022

RNF213, A0A0A0MTC1
inactive: [1] -0.02 | [2] -0.007 | [3] 0.069 | [4] 0.004 | [5] 0.045

RPL22 (UniProt P35268)
inactive: [1] -0.096 | [2] 0.061 | [3] 0.007 | [4] -0.001 | [5] 0.02

RMDN1 (UniProt Q96DB5)
inactive: [1] -0.017 | [2] 0.022 | [3] -0.005 | [4] 0.032 | [5] 0.053

RPL36 (UniProt Q9Y3U8)
inactive: [1] 0.009 | [2] 0.02 | [3] -0.012 | [4] 0.015 | [5] -0.045

RNF114 (UniProt Q9Y508)
inactive: [1] 0.033 | [2] -0.01 | [3] -0.007 | [4] 0.012 | [5] -0.07

RPAP2 (UniProt Q8IXW5)
inactive: [1] 0.031 | [2] -0.005 | [3] 0.048 | [4] -0.126 | [5] -0.07

RPL13 (UniProt P26373)
inactive: [1] 0.004 | [2] 0.017 | [3] -0.024 | [4] -0.003 | [5] -0.056

RIOK1 (UniProt Q9BRS2)
inactive: [1] -0.026 | [2] -0.031 | [3] -0.003 | [4] -0.006 | [5] -0.015

RMND5A (UniProt Q9H871)
inactive: [1] 0.009 | [2] -0.01 | [3] -0.028 | [4] 0.022 | [5] -0.026

RPL13A (UniProt P40429)
inactive: [1] -0.01 | [2] 0.014 | [3] 0.01 | [4] 0.009 | [5] 0.017

Reprinted from above (three entries):
RIOK1 (UniProt Q9BRS2)
inactive: [1] -0.026 | [2] -0.031 | [3] -0.003 | [4] -0.006 | [5] -0.015

RMND5A (UniProt Q9H871)
inactive: [1] 0.009 | [2] -0.01 | [3] -0.028 | [4] 0.022 | [5] -0.026

RPL13A (UniProt P40429)
inactive: [1] -0.01 | [2] 0.014 | [3] 0.01 | [4] 0.009 | [5] 0.017

Next results

RNMT isoform 2 (UniProt O43148)
inactive: [1] 0 | [2] -0.028 | [3] -0.001 | [4] -0.032 | [5] -0.04

RNF138 (UniProt Q8WVD3)
inactive: [1] 0.078 | [2] 0.018 | [3] 0.082 | [4] 0.041 | [5] 0.048

RPA3 (UniProt P35244)
inactive: [1] 0.004 | [2] -0.014 | [3] 0.017 | [4] 0.046 | [5] 0.018

RHOT2 (UniProt Q8IXI1)
inactive: [1] 0.003 | [2] 0.131 | [3] 0.014 | [4] -0.024 | [5] 0.029

RPL14 (UniProt P50914)
inactive: [1] 0.042 | [2] -0.05 | [3] -0.013 | [4] 0.052 | [5] 0.009

RPAP3 (UniProt Q9H6T3)
inactive: [1] -0.01 | [2] 0.025 | [3] 0.011 | [4] 0.005 | [5] 0.021

RNF14 (UniProt Q9UBS8)
inactive: [1] -0.01 | [2] 0.024 | [3] -0.001 | [4] -0.027 | [5] -0.042

RPAP1 (UniProt Q9BWH6)
inactive: [1] -0.006 | [2] 0.018 | [3] 0.015 | [4] -0.038 | [5] 0.028

RO60 (UniProt P10155)
inactive: [1] 0.017 | [2] -0.013 | [3] -0.022 | [4] 0.025 | [5] 0.057

RMC1 (UniProt Q96DM3)
inactive: [1] -0.013 | [2] 0.018 | [3] -0.052 | [4] 0.05 | [5] 0.007

RIC1 (UniProt Q4ADV7)
inactive: [1] -0.086 | [2] 0.186 | [3] 0 | [4] 0.081 | [5] 0.138

RNF146 (UniProt Q9NTX7)
inactive: [1] 0.002 | [2] -0.04 | [3] 0.002 | [4] 0.073 | [5] -0.044

RNASET2 (UniProt O00584)
inactive: [1] 0.009 | [2] -0.028 | [3] -0.013 | [4] -0.012 | [5] -0.046

RNASEH2C (UniProt Q8TDP1)
inactive: [1] -0.006 | [2] -0.02 | [3] 0.012 | [4] 0.004 | [5] -0.04

RNF141 (UniProt Q8WVD5)
inactive: [1] 0.075 | [2] 0.027 | [3] -0.223 | [4] 0.045 | [5] 0.003
